Among the data in patent publication US20190330334A1 (KAO, published 2019) are binding values, retold here.

No constants are given. Whether binding was seen depends on the method and setting. Some binding calls cover weakened binding; strength is not graded here. Ends that are not written are not given here.

The assay concerns the target active GIP, GIP(1-42). Briefly: sandwich ELISA, anti-total GIP capture antibody, biotinylated m1 as detection antibody at 1 ug/mL, GIP 8.2 to 2000 pg/mL. A general note: In an ELISA, binding on a coated surface is turned into a signal by an enzyme label.

B1: anti-active GIP monoclonal antibody produced by hybridoma 9B9H5-B9 line (Production Example 1) (antibody, V domains shown)
VH: QVQLQQPGAELVKPGASVKLSCKASGYTFTSFWMHWVIQRPGQGLEWIGEMNPSDGRTHFNEKFKTKATLTIDTSSNTAYMELNSLTSEDSAVYYCARRMEDWGQGTLVTVSA
VL: DIKMTQSPSSMYASLGERVTITCKASQDINSYLGWFQQKPGKSPKTLIYGANRLVDGVPSRFSGSGSGQDYSLTISSLEYDDMGIYYCLQYDEFPLTFGAGTKLELKR
notes: also called anti-active GIP antibody; anti-GIP antibody
As to B1, the binding result is on record as “binds”.
